Experimental data published in PMC5844868, “Increased intracellular activity of MP1102 and NZ2114 against Staphylococcus aureus in vitro and in vivo” (Scientific Reports, 2018).
Peptide text beside a SMILES is read from it.

System: RAW 264.7 macrophages
Test: PI staining of cell membrane, flow cytometry
Format: cell-based, mouse
Settings: 24 h at 37 °C

SMILES: CC[C@H](C)[C@@H]1NC(=O)[C@H](CO)NC(=O)[C@H](CCCCN)NC(=O)[C@@H]2CSSC[C@@H](C(=O)N[C@@H](Cc3ccc(O)cc3)C(=O)O)NC(=O)[C@H](CCCCN)NC(=O)[C@@H]3CSSC[C@H](NC(=O)[C@H](CCCCN)NC(=O)[C@H](C(C)C)NC(=O)[C@H](CC(=O)O)NC(=O)[C@H](CC(=O)O)NC(=O)[C@H](CCC(=O)O)NC(=O)[C@H](CCC(=O)O)NC(=O)[C@H](Cc4c[nH]c5ccccc45)NC(=O)[C@@H]4CCCN4C(=O)CNC(=O)[C@H](CC(N)=O)NC(=O)[C@@H](NC(=O)CNC(=O)[C@H](Cc4ccccc4)NC(=O)CN)CSSC[C@H](NC(=O)[C@H](Cc4ccc(O)cc4)NC(=O)CNC(=O)CNC(=O)[C@H](CCCCN)NC(=O)[C@H](Cc4ccc(O)cc4)NC(=O)CNC(=O)[C@H](CCCCN)NC1=O)C(=O)N[C@@H](C)C(=O)N[C@@H](CCCCN)C(=O)NCC(=O)NCC(=O)N[C@@H](Cc1ccccc1)C(=O)N[C@@H](C(C)C)C(=O)N3)C(=O)N[C@@H](Cc1c[nH]cn1)C(=O)N[C@@H](CC(N)=O)C(=O)N[C@@H](Cc1c[nH]cn1)C(=O)N2 [MP1102] (HELM PEPTIDE1{G.F.G.C.N.G.P.W.E.E.D.D.V.K.C.H.N.H.C.K.S.I.K.G.Y.K.G.G.Y.C.A.K.G.G.F.V.C.K.C.Y}$PEPTIDE1,PEPTIDE1,4:R3-30:R3|PEPTIDE1,PEPTIDE1,15:R3-37:R3|PEPTIDE1,PEPTIDE1,19:R3-39:R3$$$V2.0; N-terminus and C-terminus assumed; bridges inferred)
- percentage of PI-staining in cells (25 μg/ml): 0.091%
- percentage of PI-staining in cells (250 μg/ml): 0.51%
